Source: PubChem BioAssay AID588590 (National Center for Advancing Translational Sciences (NCATS), 2011)
Hit rate of the full screen: of about 390,000 compounds, about 4,000 (1%) were called active. The inconclusive results got no clear call from the source; some entries with a clear call stand among them for comparison. Calls follow the shape of the dose curve; as a rule, active = well fitted inhibition curve with a large enough effect; inconclusive = small, poorly fitted or top-dose-only effect, or another doubt; inactive = no such curve, though single readings can be large or run the other way. Potencies of inconclusive entries are doubtful fits and often do not repeat.

Amino acid sequences for entries named in this document (tags omitted). A change or cut given only in a name is not applied to a line headed by its entry.
UniProt Q9UNA4: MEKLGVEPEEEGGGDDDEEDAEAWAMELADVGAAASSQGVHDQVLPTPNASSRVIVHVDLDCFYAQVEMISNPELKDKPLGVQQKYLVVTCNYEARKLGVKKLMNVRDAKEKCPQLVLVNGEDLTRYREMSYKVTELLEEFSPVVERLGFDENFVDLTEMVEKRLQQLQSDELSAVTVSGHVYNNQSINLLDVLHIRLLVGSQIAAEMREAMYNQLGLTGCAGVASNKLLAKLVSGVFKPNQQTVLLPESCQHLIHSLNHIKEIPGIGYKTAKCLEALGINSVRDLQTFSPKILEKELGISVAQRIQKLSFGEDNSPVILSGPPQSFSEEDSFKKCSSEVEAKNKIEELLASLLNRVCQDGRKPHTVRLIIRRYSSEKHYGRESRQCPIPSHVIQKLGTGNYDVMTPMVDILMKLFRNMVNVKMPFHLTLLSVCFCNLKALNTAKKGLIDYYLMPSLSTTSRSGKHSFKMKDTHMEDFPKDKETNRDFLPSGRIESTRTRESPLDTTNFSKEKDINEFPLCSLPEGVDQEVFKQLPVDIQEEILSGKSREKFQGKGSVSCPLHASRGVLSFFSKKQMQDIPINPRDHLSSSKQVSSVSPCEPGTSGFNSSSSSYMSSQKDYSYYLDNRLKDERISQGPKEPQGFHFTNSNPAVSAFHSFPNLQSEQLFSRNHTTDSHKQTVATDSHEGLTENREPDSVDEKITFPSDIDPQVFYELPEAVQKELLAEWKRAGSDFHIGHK

Target: DNA polymerase iota (Homo sapiens) (UniProt Q9UNA4)
Assay: qHTS for Inhibitors of Polymerase Iota
Conditions: Pol iota fluorescent replication assay, 10 min; series mostly up to 115 µM
Summary of the method: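 Fluorescent replication assay read twice, at 0 min and 10 min after adding 50 nM (final) substrate. Enzyme (10 nM) and compounds were first incubated 15 min at room temperature; enzyme-free buffer wells were negative controls.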
Potency is read from the fitted curve at half-maximal effect.

Row | SMILES | Potency
1 | CCCSc1nc(C)c(-c2csc(C(C#N)=C3CCCC3)n2)cc1C#N | inconclusive: 10 µM [inhibitor, full curve, poor fit]
2 | CN(CC(=O)Nc1cccc(F)c1)C(=O)CCc1nc2sc3c(c2c(=O)[nH]1)CCCC3 | inconclusive: 14.1 µM [inhibitor, full curve, poor fit]
3 | COc1cccc(C(=O)CSc2nnnn2C)c1 | inconclusive: 39.8 µM [inhibitor, single point]
4 | COc1cc2sc3cc(NCCCN4CCOCC4)ccc3c(=O)c2cc1OC | inconclusive: 35.5 µM [inhibitor, partial curve]
5 | Nc1nc(SCc2ccc(Cl)cc2Cl)nc2nc3c(cc12)CCCC3 | active: 79.4 µM
6 | CCCc1cc(=O)[nH]c(SCC(=O)CSc2nc(CCC)cc(=O)[nH]2)n1 | inconclusive: 12.6 µM [inhibitor, partial curve, poor fit]
7 | Cc1ccc(CN2c3ccccc3S(=O)(=O)c3ccccc32)cc1 | inconclusive: 89.1 µM [inhibitor, single point]
8 | Cc1cccc(N2C(S)=C(C#N)C(=O)NC2c2cccs2)c1 (stereo unspecified) | inconclusive: 31.6 µM [inhibitor, single point]
9 | Cc1ccc2oc(=O)c3cc(C(=O)N(Cc4ccccc4)C(C)C)sc3c2c1 | inactive
10 | COc1ccc(OC)c(NC(=O)CSc2nnc(C3CCCCC3)n2-c2ccccc2)c1 | inconclusive: 35.5 µM [inhibitor, single point]
11 | O=C(CSc1oc(-c2ccco2)nc1S(=O)(=O)c1ccc(Cl)cc1)c1ccc(Cl)cc1 | inconclusive: 50.1 µM [inhibitor, partial curve, poor fit]
12 | Cn1cnnc1SCc1ccc(C#N)cc1Cl | inconclusive: 100 µM [inhibitor, single point]
13 | CCOC(=O)c1c(NC(=O)Cc2cccs2)sc(C)c1C | inconclusive: 25.1 µM [inhibitor, partial curve]
14 | CCOC(=O)/C=C1/SCC(=O)N1CC(=O)c1ccc[nH]1 | active: 22.4 µM
15 | O=C(O)C1C2C=CC(C3CC23)C1C(=O)O (stereo unspecified) | inconclusive: 89.1 µM [inhibitor, single point]
16 | CN(CC1COc2ccccc2O1)C(=O)CSc1ncccn1 (stereo unspecified) | inactive
17 | CC1=NN(c2cccc(C(=O)O)c2)C(=O)/C1=C\C=C\c1ccco1 | active: 1.26 µM
18 | COC(=O)c1ccccc1NC(=O)CN1CCN(c2ccccn2)CC1 | inconclusive: 39.8 µM [inhibitor, single point]
19 | CC(C)(C)c1ccc(-c2noc(CCC(N)=O)n2)cc1 | inconclusive: 79.4 µM [inhibitor, partial curve, poor fit]
20 | NC(=O)CC1Nc2cccc3cccc(c23)NC1=O (stereo unspecified) | inconclusive: 39.8 µM [inhibitor, full curve, poor fit]
21 | COc1ccc(-c2oc3ncn4nc(-c5ccc(Cl)cc5)nc4c3c2-c2ccc(OC)cc2)cc1 | inconclusive: 100 µM [inhibitor, single point]
22 | CCCn1c(Nc2nc3ccccc3n2C)nc2ccccc21 | inactive

Four structures from above, sorted by SMILES length, falling:
Row | SMILES | Potency
2 | CN(CC(=O)Nc1cccc(F)c1)C(=O)CCc1nc2sc3c(c2c(=O)[nH]1)CCCC3 | inconclusive: 14.1 µM [inhibitor, full curve, poor fit]
6 | CCCc1cc(=O)[nH]c(SCC(=O)CSc2nc(CCC)cc(=O)[nH]2)n1 | inconclusive: 12.6 µM [inhibitor, partial curve, poor fit]
5 | Nc1nc(SCc2ccc(Cl)cc2Cl)nc2nc3c(cc12)CCCC3 | active: 79.4 µM
16 | CN(CC1COc2ccccc2O1)C(=O)CSc1ncccn1 (stereo unspecified) | inactive

Going on with the list:

Row | SMILES | Potency
23 | FC(F)(F)c1ccccc1/C=N/N1CCN(Cc2ccccc2)CC1 | inconclusive: 89.1 µM [inhibitor, single point]
24 | O=C1Nc2cc(Cl)c(Cl)cc2N(O)N1c1cc(Cl)cc(Cl)c1 | inconclusive: 89.1 µM [inhibitor, single point]
25 | Cc1cc(C)c(NC(=O)c2ccc3c(c2)NC(=O)C(C)S3)c(C)c1 (stereo unspecified) | inactive
26 | S=c1[nH]nc(-c2cc3ccccc3o2)n1Cc1ccccc1 | inconclusive: 7.94 µM [inhibitor, partial curve, poor fit]
27 | O=C(COc1ccc(Cl)cc1)Nc1c(-c2cccs2)nc2ccccn12 | inconclusive: 112 µM [inhibitor, partial curve, poor fit]
28 | O=C(N/N=C/C=C\c1ccco1)c1cccnc1 | active: 17.8 µM
29 | C#CCOCCOCCOCCNc1nc(N2CCN(C(=O)[C@H](CCCCN)n3cc([C@@H](N)C(C)CC)nn3)CC2)nc(N2CCN(C(=O)[C@H](Cc3ccc(O)cc3)n3cc([C@@H](N)C(C)CC)nn3)CC2)n1 (stereo partly specified) | inconclusive: 28.2 µM [inhibitor, partial curve, poor fit]
30 | Cc1ccc(CN2CCNC(=O)C2CC(=O)N(C)CCc2ccccc2)cc1 (stereo unspecified) | inconclusive: 44.7 µM [inhibitor, single point]
31 | CCc1ccc(N2CCn3c2nc2c3c(=O)n(Cc3cccc(C)c3)c(=O)n2C)cc1 | inactive
32 | O=[N+]([O-])c1cccc(C=Nc2cccc3ccccc23)c1O | inactive
33 | COc1ccccc1C(C)NC(=O)c1cc(S(=O)(=O)N2CCCCC2)ccc1C (stereo unspecified) | inconclusive: 12.6 µM [inhibitor, partial curve, poor fit]
34 | S=C(Nc1ccc2c(c1)OCO2)N1CCN(Cc2ccco2)CC1 | inconclusive: 14.1 µM [inhibitor, partial curve, poor fit]
35 | C=CCn1c(SCC(=O)NCCCO)nc2sc3c(c2c1=O)CCC3 | inactive
36 | NC(=O)c1nc(C(=O)N2CCN(c3ccccc3)CC2)c2ccccc2n1 | inactive
37 | COc1ccccc1N1CCN(C(=O)c2oc3ccccc3c2NC(=O)C(C)Oc2ccccc2)CC1 (stereo unspecified) | inactive
38 | O=C(Nc1ccccc1-c1ccccc1)c1ccccc1Br | inactive
39 | COc1cc(NC(=O)c2ccco2)c(C(=O)OCC(=O)Nc2ncc(Cl)cc2Cl)cc1OC | inconclusive: 35.5 µM [inhibitor, partial curve]
40 | S=C(NN=C1CCCCCC1)Nc1ccc(Cl)cc1 | inconclusive: 22.4 µM [inhibitor, partial curve, poor fit]
41 | Cc1cccn2cc(-c3ccc(S(=O)(=O)N4CCCCC4)cc3)nc12 | inconclusive: 89.1 µM [inhibitor, single point]
42 | CCC(C)NC(=O)c1ccc(NC(=O)CC2SC(N3CCCCC3)=NC2=O)cc1 (stereo unspecified) | inconclusive: 31.6 µM [inhibitor, partial curve]
43 | O=C(Nc1ccc(Cl)cc1)P(=O)(O)c1ccccc1 | inconclusive: 100 µM [inhibitor, partial curve, poor fit]
44 | C=C1CCC(C)C(C)(CCC2=CCOC2=O)C/C=C\C=C/1C(=O)O (stereo unspecified) | inconclusive: 44.7 µM [inhibitor, single point]

Row | SMILES | Potency
45 | O=C(CSCc1ccc(Cl)cc1)N/N=C/c1ccc(OCC(=O)Nc2ccccc2)cc1 | inconclusive: 7.94 µM [inhibitor, full curve, poor fit]
46 | CCCc1nc2c(s1)CCc1onc(-c3ccc(Br)cc3)c1-2 | inconclusive: 31.6 µM [inhibitor, single point]
47 | CCC(=O)NC1=C(Cl)C(=O)C(NC(=O)CC)=C(Cl)C1=O | active: 1.78 µM
48 | Nc1nonc1-c1nc2ccccc2n1Cc1ccc(F)cc1Cl | inconclusive: 25.1 µM [inhibitor, single point]
49 | Cc1ccc(C(=O)CC2(O)C(=O)N(CCc3ccccc3)c3ccc(Br)cc32)o1 (stereo unspecified) | inactive
50 | COc1ccc([C@@H]2CC=C(C(=O)O)[C@H](c3ccc(C)cc3)N2S(=O)(=O)c2ccc(C)cc2)cc1OC | inactive
51 | COc1cc(C)c(NC(=O)COc2cccc3c2OC(C)(C)C3)cc1OC | inconclusive: 79.4 µM [inhibitor, single point]
52 | CCN1CCC(N2CCN(c3ccc(Cl)cc3)CC2)CC1 | inconclusive: 39.8 µM [inhibitor, single point]
53 | O=c1[nH]c(SCc2ccc(F)cc2)nc2c1CCCC2 | inactive
54 | Cc1cc(C(=O)COC(=O)c2ccc(NC(=O)CC#N)cc2)c(C)n1-c1ccc(OC(F)F)cc1 | inconclusive: 39.8 µM [inhibitor, single point]
55 | COc1cccc(C2Oc3ccccc3C3CC(c4cccs4)=NN32)c1 (stereo unspecified) | inactive
56 | CN=c1scc(C)n1/N=C/c1ccc(O)c(O)c1O | active: 7.94 µM
57 | C=CCC1(NCc2ccco2)CCN(CC)CC1 | inconclusive: 20 µM [inhibitor, partial curve, poor fit]
58 | COc1ccc(/C=N/OCc2ccc(Br)cc2)c(OC)c1 | inconclusive: 25.1 µM [inhibitor, single point]
59 | CC1(OC(=O)C2CCCC2)C(=O)C=C2C=C(c3ccc(C#N)cc3)OC=C2C1=O (stereo unspecified) | inconclusive: 39.8 µM [inhibitor, full curve, poor fit]
60 | CCc1ccc(-c2cc3c(=O)n(CC(=O)NCCCN4CCC(Cc5ccccc5)CC4)nc(C)n3n2)cc1 | inconclusive: 79.4 µM [inhibitor, single point]
61 | O=C(Nc1ccccc1)c1cccc(C(F)(F)F)c1 | inconclusive: 89.1 µM [inhibitor, partial curve, poor fit]
62 | COC(=O)Cn1c(CN(Cc2ccccc2)Cc2ccccc2)nc2c1c(=O)[nH]c(=O)n2C | inconclusive: 89.1 µM [inhibitor, partial curve, poor fit]
63 | O=C(Nc1n[nH]c(=S)s1)c1ccco1 | inconclusive: 20 µM [inhibitor, full curve, poor fit]
64 | COc1ccc(-c2nc3cnccn3c2NCc2ccccc2)cc1SC1CCCCC1 | inconclusive: 22.4 µM [inhibitor, single point]
65 | Cn1c2ccccc2c2c(=O)oc3ccccc3c21 | inconclusive: 1 µM [inhibitor, full curve, poor fit]
66 | COC(=O)[C@@]1(C)[C@H]2C(=O)N(Cc3ccccc3)C(=O)[C@H]2[C@H]2CN(C)C(=NC3CCCCC3)N21 | inconclusive: 10 µM [inhibitor, partial curve, poor fit]
